# Taken from: PubChem BioAssay AID1259298 (Sanger Institute, 2017)
# Screen: 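Kinases whose loss strengthens killing by BYL719, cetuximab or trametinib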 (primary screen)
# Cells: HT55 human colorectal cancer cell line
# Reagent: siRNA pool against human genes
# Treatment: anchor drug BYL719 1 µM, cetuximab 5 µg/ml or trametinib 10 nM, or DMSO vehicle alone
# Read-out: 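Replicate-averaged viability versus wells of non-targeting pool; knock-down-only robust z-score; per-drug synergy score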
# Reading the numbers: robust z-score, knock-down alone: higher = more cells remaining; low means essential gene; viability vs control pool, no drug: higher = more viable cells; synergy score with BYL719 and synergy score with cetuximab and synergy score with trametinib: higher = stronger synthetic lethality with the drug
# Call rule: 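Essential when the robust z-score for knock-down alone with DMSO is below -3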
# Calls: active = essential (knock-down alone); inactive = no change alone
# The deposit covers 794 reagents; this is a random part of them. Of all reagents, 20 (2.5%) were called active. 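Calls rest only on the knock-down-alone score; drug synergy scores played no part in them.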 Unmarked entries are inactive. No viability above 1 is reported: the scale is capped. Reagent sequences are not shown. The record does not give: the amount of reagent, the time to read-out.
target gene,"robust z-score, knock-down alone","viability vs control pool, no drug (fraction)",synergy score with BYL719,synergy score with cetuximab,synergy score with trametinib
IP6K3 (GeneID 117283),-1.56,0.833,-0.332,-0.189,-0.0462
TPD52L3 (GeneID 89882),0.58,1,-0.107,-0.194,-0.118
STK38 (GeneID 11329),0.58,1,-0.107,-0.0824,0.062
IKBKG (GeneID 8517),0.248,0.974,-0.237,-0.149,-0.118
ITPK1 (GeneID 3705),0.58,1,-0.222,-0.19,0.0183
STRADA (GeneID 92335),0.58,1,-0.22,-0.106,-0.0501
MAPK8 (GeneID 5599),-0.343,0.928,-0.137,-0.268,-0.0688
AGK (GeneID 55750),0.58,1,-0.272,-0.093,0.0219
RIPK1 (GeneID 8737),0.245,0.974,-0.167,-0.0727,-0.0208
CLSPN (GeneID 63967),-0.464,0.918,-0.0322,-0.091,0.0584
IDH2 (GeneID 3418),-1.37,0.847,-0.22,-0.027,-0.0112
TEK (GeneID 7010),0.58,1,-0.195,-0.175,-0.0453
CALM2 (GeneID 805),-1.38,0.847,-0.195,-0.103,0.0657
MAK (GeneID 4117),-0.125,0.945,-0.217,-0.224,-0.0998
TESK2 (GeneID 10420),0.58,1,-0.056,-0.0817,0.0606
STK32A (GeneID 202374),0.58,1,-0.178,-0.211,-0.143
CSNK1A1 (GeneID 1452),0.58,1,-0.178,-0.099,-0.0387
PRKCH (GeneID 5583),-2.34,0.772,-0.181,-0.0448,0.0605
TWF1 (GeneID 5756),0.58,1,-0.2,-0.211,-0.0259
DCLK1 (GeneID 9201),-0.203,0.939,-0.215,-0.157,-0.0156
DYRK2 (GeneID 8445),0.461,0.991,-0.0959,-0.0898,0.143
SPHK2 (GeneID 56848),-0.636,0.905,-0.0697,-0.0627,0.0607
PIK3CB (GeneID 5291),-0.989,0.877,-0.0113,0.173,0.0158
DDR2 (GeneID 4921),0.58,1,-0.272,-0.211,-0.235
TRIB3 (GeneID 57761),-1.61,0.829,-0.149,-0.166,-0.0366
CDKL5 (GeneID 6792),0.58,1,-0.272,-0.141,-0.00902
MAP2K5 (GeneID 5607),0.58,1,-0.224,-0.211,-0.0435
WIPF1 (GeneID 7456),-2.01,0.798,-0.104,-0.0468,0.0651
MAGI2 (GeneID 9863),0.58,1,-0.0934,-0.138,-0.0191
NUCKS1 (GeneID 64710),0.58,1,-0.272,-0.211,-0.194
STK32B (GeneID 55351),-0.996,0.877,-0.122,-0.115,-0.0219
MAPK14 (GeneID 1432),0.521,0.995,-0.0854,-0.0183,0.119
MERTK (GeneID 10461),0.437,0.989,-0.156,-0.111,0.0049
EEF2K (GeneID 29904),0.58,1,-0.0609,-0.0765,0.00832
STK39 (GeneID 27347),0.58,1,-0.0613,-0.211,-0.0129
CDK11A (GeneID 728642),-5.04 (active),0.56,-0.222,-0.26,-0.196
DNMT3A (GeneID 1788),-0.954,0.88,-0.284,-0.306,-0.0309
AK4 (GeneID 205),0.58,1,-0.101,-0.108,-0.0227
NRBP1 (GeneID 29959),-2.3,0.775,-0.245,-0.22,-0.11
DUSP21 (GeneID 63904),0.58,1,-0.0535,-0.135,-0.104
TLK2 (GeneID 11011),0.58,1,-0.253,-0.0342,0.00998
CSK (GeneID 1445),0.448,0.99,-0.115,-0.175,-0.226
PFKFB2 (GeneID 5208),0.386,0.985,-0.203,-0.223,-0.0138
ERN2 (GeneID 10595),0.58,1,-0.187,-0.0367,0.0751
MYLK (GeneID 4638),0.303,0.978,-0.222,-0.117,0.0339
CLK3 (GeneID 1198),-0.561,0.911,-0.0845,-0.0047,-0.0741
LTK (GeneID 4058),0.138,0.965,-0.248,-0.186,-0.0155
RPS6KL1 (GeneID 83694),0.58,1,-0.078,-0.2,0.0171
STK40 (GeneID 83931),0.525,0.996,-0.148,-0.165,-0.0374
ROCK2 (GeneID 9475),-0.0478,0.951,-0.0925,-0.205,0.0573

Part of the list above in another layout.
target gene	robust z-score, knock-down alone	viability vs control pool, no drug (fraction)	synergy score with BYL719	synergy score with cetuximab	synergy score with trametinib
TPD52L3 (GeneID 89882)	0.58	1	-0.107	-0.194	-0.118
STK38 (GeneID 11329)	0.58	1	-0.107	-0.0824	0.062
IKBKG (GeneID 8517)	0.248	0.974	-0.237	-0.149	-0.118
ITPK1 (GeneID 3705)	0.58	1	-0.222	-0.19	0.0183
STRADA (GeneID 92335)	0.58	1	-0.22	-0.106	-0.0501
MAPK8 (GeneID 5599)	-0.343	0.928	-0.137	-0.268	-0.0688
AGK (GeneID 55750)	0.58	1	-0.272	-0.093	0.0219
RIPK1 (GeneID 8737)	0.245	0.974	-0.167	-0.0727	-0.0208
